# In the supplement of paper PMC4604168 (melanoma cell lines):
# The other results are listed elsewhere or left out. Many values rest on one well or one pass, so single values are uncertain.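 The apoptosis fraction was the count of cleaved-PARP antibody-stained nuclei relative to all DNA-stained nuclei, imaged in 1,536-well plates. Screening doses were set so most cells survived, and baseline and induced cleaved-PARP levels vary greatly across cell lines.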
# How the values were obtained:
# Assay in all cases: cleaved PARP positive nuclei fraction relative to DMSO control; melanoma cells; higher = more apoptosis
# Conditions in all cases: library dose: low library concentration; 72 h
# 501Mel = tested on: 501Mel
# A101D = tested on: A101D
# A2058 = tested on: A2058
# A375 = tested on: A375
# C32 = tested on: C32
# CBRC008 = tested on: CBRC008 (line from a melanoma biopsy)
# CBRC014 = tested on: CBRC014 (line from a melanoma biopsy)
# CBRC016 = tested on: CBRC016 (line from a melanoma biopsy)
# CBRC017 = tested on: CBRC017 (line from a melanoma biopsy)
# CBRC034 = tested on: CBRC034 (line from a melanoma biopsy)
# COLO792 = tested on: COLO792
# COLO800 = tested on: COLO800
# COLO829 = tested on: COLO829
# G361 = tested on: G361
# IPC-298 = tested on: IPC-298
# IST-MEL1 = tested on: IST-MEL1
# LB2518-MEL = tested on: LB2518-MEL
# LOXIMVI = tested on: LOXIMVI
# MEL-HO = tested on: MEL-HO
SMILES,cleaved PARP positive nuclei fraction (501Mel) [%],cleaved PARP positive nuclei fraction (A101D) [%],cleaved PARP positive nuclei fraction (A2058) [%],cleaved PARP positive nuclei fraction (A375) [%],cleaved PARP positive nuclei fraction (C32) [%],cleaved PARP positive nuclei fraction (CBRC008) [%],cleaved PARP positive nuclei fraction (CBRC014) [%],cleaved PARP positive nuclei fraction (CBRC016) [%],cleaved PARP positive nuclei fraction (CBRC017) [%],cleaved PARP positive nuclei fraction (CBRC034) [%],cleaved PARP positive nuclei fraction (COLO792) [%],cleaved PARP positive nuclei fraction (COLO800) [%],cleaved PARP positive nuclei fraction (COLO829) [%],cleaved PARP positive nuclei fraction (G361) [%],cleaved PARP positive nuclei fraction (IPC-298) [%],cleaved PARP positive nuclei fraction (IST-MEL1) [%],cleaved PARP positive nuclei fraction (LB2518-MEL) [%],cleaved PARP positive nuclei fraction (LOXIMVI) [%],cleaved PARP positive nuclei fraction (MEL-HO) [%]
"O=C(Nc1cc(C(F)(F)F)cc(C(F)(F)F)c1)c1cc(Cl)ccc1O + C[C@@H](N)c1ccc(C(=O)Nc2ccnc3[nH]ccc23)cc1 [RKI983] (first compound 0.016 µM, partner dose 0.4 µM)",83.9,232,128,339,103,93.2,216,114,82.1,88.5,91.2,137,72,96.1,77.8,277,48.3,121,169
"N#CC[C@H](C1CCCC1)n1cc(-c2ncnc3[nH]ccc23)cn1 [ruxolitinib] + OCc1c[nH]c2ccccc12 [Indole-3-carbinol] (first compound 1 µM, partner dose 0.8 µM)",72.6,83.6,57.4,56.8,65.3,107,86.1,206,73.3,232,77.4,49.5,147,96.8,196,29.3,209,79.9,46.1
"Cc1ccc(Nc2nccc(N(C)c3ccc4c(C)n(C)nc4c3)n2)cc1S(N)(=O)=O [Pazopanib] + Nc1nc(F)nc2c1ncn2[C@@H]1O[C@H](CO)[C@@H](O)[C@@H]1O [fludarabine] (first compound 0.4 µM, partner dose 0.2 µM)",24000,162,82.5,2400,39.2,36.6,133,150,90.5,32.8,126,118,126,144,53,84,108,141,157
"CC[C@]1(O)C[C@H]2CN(CCc3c([nH]c4ccccc34)[C@@](C(=O)OC)(c3cc4c(cc3OC)N(C=O)[C@H]3[C@@](O)(C(=O)OC)[C@H](OC(C)=O)[C@]5(CC)C=CCN6CC[C@]43[C@@H]65)C2)C1 [vincristine] + O=c1[nH]nc(Sc2ncc([N+](=O)[O-])s2)n1-c1ccc2c(c1)OCCO2 [BI78D3] (first compound 0.0001 µM, partner dose 0.2 µM)",77,60.9,984,202,204,194,109,74.6,176,47.1,94.2,159,195,66.4,46.7,78.3,51.3,233,68
"O=C(Nc1cc(C(F)(F)F)cc(C(F)(F)F)c1)c1cc(Cl)ccc1O + O=C(/C=C/c1cccnc1)NCCCCC1CCN(C(=O)c2ccccc2)CC1 [FK866] (first compound 0.016 µM, partner dose 0.01 µM)",94.1,66.6,101,107,68.1,2930,81.9,317,944,303,185,69.1,136,1450,84,77.3,97.6,137,357
"O=c1[nH]nc(Sc2ncc([N+](=O)[O-])s2)n1-c1ccc2c(c1)OCCO2 + NC(=O)c1ccc(N(C(N)=O)c2c(F)cccc2F)nc1-c1ccc(F)cc1F [VX702] (first compound 0.2 µM, partner dose 0.4 µM)",66.5,86.9,55.4,163,72.8,112,124,711,101,159,54.1,147,42.7,83.7,166,281,98.8,23.4,119
"COc1cc([C@@H]2c3cc4c(cc3[C@@H](O[C@@H]3O[C@@H]5CO[C@@H](C)O[C@H]5[C@H](O)[C@H]3O)[C@H]3COC(=O)[C@H]23)OCO4)cc(OC)c1O [etoposide] + CC(=O)O[C@@]12CO[C@@H]1C[C@H](O)[C@@]1(C)C(=O)[C@H](O)C3=C(C)[C@@H](OC(=O)[C@H](O)[C@@H](NC(=O)OC(C)(C)C)c4ccccc4)C[C@@](O)([C@@H](OC(=O)c4ccccc4)[C@H]21)C3(C)C [Docetaxel] (first compound 0.02 µM, partner dose 0.0001 µM)",130,247,3020,955,180,198,703,280,168,69.1,343,139,288,571,354,177,62.2,240,142
"CCCCCCCCCCCCCCCCCCOP(=O)([O-])OC1CC[N+](C)(C)CC1 [Perifosine] + C[C@@H](Oc1cc(-c2cnn(C3CCNCC3)c2)cnc1N)c1c(Cl)ccc(F)c1Cl [Crizotinib] (first compound 0.4 µM, partner dose 0.2 µM)",72.3,39.9,139,72,73,57.9,89.6,129,112,80.9,160,131,112,33.3,237,128,49.4,166,90

# Single records, as listed above. Values in the order: cleaved PARP positive nuclei fraction (501Mel) [%] | cleaved PARP positive nuclei fraction (A101D) [%] | cleaved PARP positive nuclei fraction (A2058) [%] | cleaved PARP positive nuclei fraction (A375) [%] | cleaved PARP positive nuclei fraction (C32) [%] | cleaved PARP positive nuclei fraction (CBRC008) [%] | cleaved PARP positive nuclei fraction (CBRC014) [%] | cleaved PARP positive nuclei fraction (CBRC016) [%] | cleaved PARP positive nuclei fraction (CBRC017) [%] | cleaved PARP positive nuclei fraction (CBRC034) [%] | cleaved PARP positive nuclei fraction (COLO792) [%] | cleaved PARP positive nuclei fraction (COLO800) [%] | cleaved PARP positive nuclei fraction (COLO829) [%] | cleaved PARP positive nuclei fraction (G361) [%] | cleaved PARP positive nuclei fraction (IPC-298) [%] | cleaved PARP positive nuclei fraction (IST-MEL1) [%] | cleaved PARP positive nuclei fraction (LB2518-MEL) [%] | cleaved PARP positive nuclei fraction (LOXIMVI) [%] | cleaved PARP positive nuclei fraction (MEL-HO) [%]
# O=c1[nH]nc(Sc2ncc([N+](=O)[O-])s2)n1-c1ccc2c(c1)OCCO2 + NC(=O)c1ccc(N(C(N)=O)c2c(F)cccc2F)nc1-c1ccc(F)cc1F [VX702] (first compound 0.2 µM, partner dose 0.4 µM) is entered as 66.5 | 86.9 | 55.4 | 163 | 72.8 | 112 | 124 | 711 | 101 | 159 | 54.1 | 147 | 42.7 | 83.7 | 166 | 281 | 98.8 | 23.4 | 119
# N#CC[C@H](C1CCCC1)n1cc(-c2ncnc3[nH]ccc23)cn1 [ruxolitinib] + OCc1c[nH]c2ccccc12 [Indole-3-carbinol] (first compound 1 µM, partner dose 0.8 µM) is entered as 72.6 | 83.6 | 57.4 | 56.8 | 65.3 | 107 | 86.1 | 206 | 73.3 | 232 | 77.4 | 49.5 | 147 | 96.8 | 196 | 29.3 | 209 | 79.9 | 46.1
